Primary screen of a compound library

Sequences of proteins named here, by UniProt entry; tags and fusion partners are left off. Residues count along the entry.
UniProt A4I591, 1-473: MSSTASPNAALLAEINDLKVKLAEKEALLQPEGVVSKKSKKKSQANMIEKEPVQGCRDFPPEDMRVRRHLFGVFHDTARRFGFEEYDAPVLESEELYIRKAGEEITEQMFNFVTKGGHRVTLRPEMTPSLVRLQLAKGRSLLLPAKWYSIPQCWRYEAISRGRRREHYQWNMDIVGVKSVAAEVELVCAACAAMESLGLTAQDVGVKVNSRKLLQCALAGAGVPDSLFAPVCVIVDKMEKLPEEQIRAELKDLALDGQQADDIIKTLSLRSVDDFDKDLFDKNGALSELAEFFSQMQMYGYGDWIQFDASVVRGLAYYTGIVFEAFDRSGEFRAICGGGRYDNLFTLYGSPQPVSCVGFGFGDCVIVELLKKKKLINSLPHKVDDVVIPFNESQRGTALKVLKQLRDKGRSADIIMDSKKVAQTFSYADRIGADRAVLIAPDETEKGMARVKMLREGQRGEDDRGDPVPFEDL
UniProt P9WPC5, whole entry: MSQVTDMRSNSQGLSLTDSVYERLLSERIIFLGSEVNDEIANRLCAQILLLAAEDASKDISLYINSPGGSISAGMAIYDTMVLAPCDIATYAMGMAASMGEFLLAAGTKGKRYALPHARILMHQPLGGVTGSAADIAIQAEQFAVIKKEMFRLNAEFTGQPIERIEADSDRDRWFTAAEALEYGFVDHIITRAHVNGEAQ
UniProt P9WPC3, whole entry partner: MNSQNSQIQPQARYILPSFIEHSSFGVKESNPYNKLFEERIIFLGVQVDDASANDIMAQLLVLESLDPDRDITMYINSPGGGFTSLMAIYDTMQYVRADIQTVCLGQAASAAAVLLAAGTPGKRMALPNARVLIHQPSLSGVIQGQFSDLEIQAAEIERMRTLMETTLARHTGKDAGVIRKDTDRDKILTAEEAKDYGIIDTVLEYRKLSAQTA
UniProt Q4DA54, 1-478: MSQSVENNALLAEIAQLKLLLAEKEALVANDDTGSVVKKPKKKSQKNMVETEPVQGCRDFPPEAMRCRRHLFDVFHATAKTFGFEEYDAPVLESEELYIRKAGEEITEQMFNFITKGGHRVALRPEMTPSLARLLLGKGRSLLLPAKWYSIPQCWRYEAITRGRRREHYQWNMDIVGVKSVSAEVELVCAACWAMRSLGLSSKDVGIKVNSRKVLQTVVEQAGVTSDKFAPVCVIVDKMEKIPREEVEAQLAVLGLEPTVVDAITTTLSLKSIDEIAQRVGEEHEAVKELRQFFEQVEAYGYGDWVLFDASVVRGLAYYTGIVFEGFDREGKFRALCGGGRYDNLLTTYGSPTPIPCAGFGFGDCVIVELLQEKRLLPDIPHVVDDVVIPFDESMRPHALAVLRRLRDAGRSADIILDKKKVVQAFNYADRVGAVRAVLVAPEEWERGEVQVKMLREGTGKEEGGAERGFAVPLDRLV

Source: ChEMBL document CHEMBL3988442, “University of Dundee, Small-Polar-MMV Screening Library” (2021).

Toxoplasma: 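Assay of Toxoplasma gondii numbers, read through their beta-galactosidase reporter with a colour substrate. Tested at 10 µM. The record gives no direction; the compounds picked for IC50 retests had high values, so higher reads as fewer parasites. Of about 67,000 compounds tested this way, about 260 (0.38%) reached 50% or more in at least one test.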
T. brucei: 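Whole-parasite assay of Trypanosoma brucei over 72 hours; the read-out is not stated. Compounds at 30 µM. Higher reads as stronger inhibition (inferred: compounds with an IC50 in retests scored well above the rest). Values scatter widely below zero; nearly all retest evidence comes from the higher of the two concentrations used. About 64,000 compounds were tested under these conditions; 1.5% (about 940) showed 50% or more at least once.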
LiHisRS: 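Enzyme assay of histidyl-tRNA synthetase; the read-out is not stated. Target: Histidine-tRNA ligase, Leishmania infantum (UniProt A4I591). Compounds at 30 µM. The record gives no direction; compounds that gave an IC50 in retests scored well above the rest, so higher reads as stronger inhibition. The assay is labelled LdHisRS but filed under L. infantum. Of about 69,000 compounds tested this way, about 410 (0.6%) reached 50% or more in at least one test.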
ClpP1P2: 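Protease assay of ClpP1P2, read by the AMC dye that it sets free. Target: ClpP1P2, Mycobacterium tuberculosis (UniProt P9WPC5 and UniProt P9WPC3). Concentration: 50 µM. Higher reads as stronger inhibition, judged from the few compounds that gave an IC50. Most other retested compounds had strongly negative values. About 69,000 compounds were tested under these conditions; 0.015% (about 10) showed 50% or more at least once.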
TcHisRS: 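Histidine-tRNA ligase, Trypanosoma cruzi CL Brener (UniProt Q4DA54). Enzyme assay of histidyl-tRNA synthetase; the read-out is not stated. Concentration: 30 µM. Direction is inferred from retests: higher values go with stronger inhibition. Size under these conditions: about 69,000 compounds, about 31 of them at 50% or above in at least one test.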

The filed quantity is “Percent Effect” (%).
The controls that fix the scale are not given in the record; negative values are as filed.
This is an unselected part of the compounds tested.
A dash means the value is not listed here; it may have been measured.

Compound | Toxoplasma | T. brucei | LiHisRS | ClpP1P2 | TcHisRS
CNc1cncc(C2CCCN2Cc2c[nH]cn2)n1 (centres undefined) | -8.924% | -9.678% | 2.857% | -4.913% | 4.301%
CC1(Cc2cccnc2)NCCc2[nH]cnc21 (centres undefined) | -7.008% | -71.93% | 8.571% | 14.76% | -15.46%
O=C(NCCc1ccn(-c2ccccc2)n1)N1CCCC(O)C1 (centres undefined) | 17.28% | - | 11.5% | -38.76% | 8.455%
Cc1nnc(N2C[C@H]3OCC[C@H]3[C@H](C(=O)NCC3CC3)C2)s1 | - | - | 7.965% | -7.393% | 5.376%
CCC(CO)N(Cc1ccco1)C(=O)c1cccnc1NC (centres undefined) | -0.8646% | 4.319% | -4.301% | -14.69% | 6.806%
O=c1[nH]c(=O)n(CC(O)c2ccccc2Cl)cc1Cl (centres undefined) | -4.921% | 10.03% | 13.7% | -5.72% | 1.053%
Cc1cccc(Nc2nccnc2C2CCCN2CC(=O)N(C)C)n1 (centres undefined) | 1.719% | 1.901% | 3.65% | -6.684% | -1.639%
Cc1n[nH]c(C2CN(C(=O)CCc3ccsc3)CCO2)n1 (centres undefined) | -8.976% | -37.98% | 7.692% | -7.604% | 0.8264%
COCCC(=O)N1CCC2(CCCN2Cc2ccccc2)C1 (centres undefined) | 23.24% | -31.92% | 0% | -13.58% | 0.6135%
Cc1nc(N2CCN(C(=O)C(C)(C)C)CC2)cc(-n2cnc(C)c2C)n1 | 7.479% | 6.92% | -0.9434% | -11.77% | 0%
O=C(O)C(F)(F)F.[H][C@@]12CCN(S(C)(=O)=O)[C@@]1([H])CCN2Cc1cc(C)c(C)o1 | 6.257% | -18.6% | - | - | -
CCn1c(CNC(=O)Nc2nc(C)c(C)o2)nc2ccccc21 | 11.48% | -66.16% | 5.479% | -3.003% | 4.372%
CCS(=O)(=O)Nc1ccn(Cc2ccc(F)cc2Cl)n1 | 2.838% | 8.3% | 3.704% | -22.44% | 2.232%
CCOc1cccc(C(=O)N2C[C@H]3CC[C@@H]2CN(C(=O)C2CCC2)C3)c1 | - | - | 4% | 0.5147% | 2.513%
Cc1cc(C)c2nc(CN3CCC(N4CCOCC4)CC3)cc(O)c2c1 | -9.82% | -19.47% | 2.778% | -7.926% | 5.102%
CC(=O)Nc1cc(Br)cnc1OCC(F)(F)F | -4.562% | -12.94% | 19.3% | 2.155% | 0.8403%
CCc1nc(CN2CCCN(c3nc4ccccc4o3)CC2)no1 | 2.267% | -28.95% | -0.9434% | 4.986% | 1.674%
O=C(O)C(F)(F)F.O=C(c1cnccn1)N1CCCC2(CCN(Cc3ccsc3)CC2)C1 | 11.9% | -8.407% | - | - | -
CN1CCC(CN2CCC3(CCCN(Cc4ccoc4)C3)C2=O)CC1.O=C(O)C(F)(F)F.O=C(O)C(F)(F)F (centres undefined) | -18.81% | -15.67% | - | - | -
CC(C)(C)C(O)CN1CCN(Cc2nccn2CC(F)(F)F)CC1 (centres undefined) | -4.933% | 19.3% | 14.52% | -0.5387% | 9.74%
CCN(C(=O)COC)C(c1ccc(Cl)cc1)c1ccccn1 (centres undefined) | 18.24% | -19.57% | 2.439% | -15.03% | 1.442%
O=C(c1ccccc1)N1CCCC2(CCN2Cc2cccc(F)c2)C1 (centres undefined) | - | - | 9.91% | 6.154% | 5.525%
Cc1c[nH]nc1C1CCCN1Cc1ncc[nH]1 (centres undefined) | - | - | 11.43% | -71.61% | 8.812%
Cc1ccc(CN2CCN(C3CSCCSC3)CC2CCO)o1 (centres undefined) | -2.679% | 1.441% | 0% | -10.87% | 4.972%
O=C1CCSCC(C(=O)N2CCCCC2)N1 (centres undefined) | -18.95% | -2.665% | 23.08% | -8.549% | 1.205%
CCCNC(=O)NC(C)c1ccccn1 (centres undefined) | 6.627% | 0.968% | 5.618% | -6.711% | -0.5181%
COc1ccc(C2(C(=O)NCc3c(C)ncc4c3CCNC4)CC2)cc1 | 4.309% | 12.59% | 12.82% | -5.157% | -0.5618%
O=C(O)C(F)(F)F.O=C(O)C(F)(F)F.[H][C@@]12C[C@H](C(=O)NCC3CC3)N(C)[C@]1([H])CN(Cc1ccsc1)C2 | -1.748% | -48.96% | - | - | -
COc1ncc(Cl)c(NCc2ccc(C(=O)N(C)C)cc2)n1 | -0.6676% | -48.27% | -2.128% | -6.249% | 1.734%
Cc1ccc(Cl)cc1-n1nnnc1C1(N2CCCC2)CCCC1 | 0.3701% | - | 7.5% | -21.59% | 0%
O=C(NCc1ccco1)[C@@H]1COC[C@H]2CN(c3ncc(F)cn3)C[C@H]21 | - | - | 6.838% | -6.237% | 4.908%
O=C(c1cc2c([nH]c1=O)CCC2)N1CCCC1c1cccnc1 (centres undefined) | 7.564% | -18.59% | 27.27% | -4.533% | -4.348%
[H][C@@]12CCCO[C@]1([H])[C@H](NC(=O)C1CC1)CN2Cc1ccc2c(c1)OCO2 | 3.739% | -2.545% | - | - | -
Cc1noc(C)c1CS(=O)(=O)CC(=O)N1CCc2sccc2C1 | -27.39% | 7.451% | 16.07% | -21.68% | 6.916%
CCn1ccnc1CN(C)C1CCCN(CCc2ccccc2)C1 (centres undefined) | 17.7% | -41.23% | 6.604% | -6.239% | 2.51%
O=C(NCCN1CCOCC1)c1ccn(-c2ccc3ccccn23)n1 | - | - | 30.91% | 4.101% | -9.091%
O=C(CCNc1ncccn1)NCc1ccc(Br)s1 | 2.941% | 6.765% | 14.91% | 6.339% | 1.724%
O=C(NCC1CCOCC1)c1cc(-c2ccc3c(c2)CCO3)n[nH]1 | 2.967% | 5.428% | 21.05% | -10.63% | -1.754%
CS(=O)(=O)N1CCc2sc(C(=O)NCCc3ccccn3)cc21 | 0.8997% | -5.443% | 6.944% | -13.09% | 7.619%
CCc1nc2n(n1)CC(NCC(=O)Nc1cc(C(C)(C)C)no1)CC2 (centres undefined) | -2.585% | -23.6% | 14.55% | 12.23% | 5.263%
CO[C@H]1CN(C(=O)OC(C)(C)C)CC1NCc1cc[nH]c1 (some centres undefined) | -11% | -36.16% | 10.53% | -12.2% | 1.754%
[H][C@]12C[C@H](C(=O)NCC3CC3)N(C)[C@@]1([H])CN(Cc1ccoc1)C2 | -4.078% | -44.25% | - | - | -
Cn1nccc1-c1ncc2c(c1C(=O)O)CCN(Cc1ccncc1)C2 | - | - | 19.66% | -5.542% | 4.813%
Cc1cc(F)cc2c(NCC(C)(C)C(N)=O)c(C#N)cnc12 | -0.2378% | -53.27% | 9.211% | -0.6149% | 10.34%
Cc1noc(C)c1CNCC1COCc2c(-c3ccsc3)nnn2C1 (centres undefined) | - | - | -2.632% | 4.478% | 4.598%
CCc1ncnc2c1CCN(C(=O)c1ccncc1F)CC2.O=C(O)C(F)(F)F | -11.34% | -12.26% | - | - | -
CCc1nnc(CNC(=O)c2cc3c(nc2OC)CCC3)s1 | -7.633% | -23.62% | 16% | 5.081% | -1.63%
CCc1cnc(N2CC[C@H]3[C@@H]2CCC(=O)N3CC2CCOCC2)nc1 | - | - | 0% | 5.021% | 4.908%
Cc1cc(-c2nccs2)nc(C2CCN(Cc3ccc(F)cc3)CC2)n1.Cl | -6.22% | -1.786% | - | - | -
CC1c2ncc(CN3CCN(C)CC3)n2CCN1Cc1cccnc1.O=C(O)C(F)(F)F.O=C(O)C(F)(F)F.O=C(O)C(F)(F)F.O=C(O)C(F)(F)F (centres undefined) | -0.8547% | -3.708% | - | - | -
O=C(c1cc(-n2cccc2)ccc1Cl)N1CCC2(CC1)OCCO2 | -0.8547% | 30.63% | 25.71% | -13.3% | 4.348%
CN(C)CCN1CCCC12CCCN(Cc1ccoc1)C2 (centres undefined) | - | - | -1.754% | 6.12% | 2.151%
COC(=O)c1cc(OC)ccc1NCC(=O)NCC(=O)N1CCCC1 | 8.221% | -2.092% | 16.3% | -340.4% | 1.98%
Cn1cc(CN2CCOC[C@H]2c2nc(C(C)(C)C)co2)c2ccccc21 | -5.032% | -24.98% | 0% | -10.63% | 4.478%
Cc1ccoc1C(=O)NCCS(=O)(=O)N1CCSCC1 | 17.89% | - | 15.93% | -7.491% | -5.263%
COc1ccccc1C(NC(=O)C1CCC1)c1noc(C)n1 (centres undefined) | 11.76% | 5.5% | 14.04% | -1.893% | 7.563%
O=C(O)C(F)(F)F.O=C(O)C(F)(F)F.c1cncc(CN2CCc3ncnc(C4CC4)c3CC2)c1 | -2.141% | -92.86% | - | - | -
COc1cc(CN2CCCC2c2cccc(F)c2)cc(OC)c1OC (centres undefined) | 13.61% | 7.476% | 20.65% | 2.603% | 8.911%
O=C(Cc1ccc2c(c1)OCCO2)NC1CCCCC1 | -42.41% | 10.48% | 14.29% | -22.48% | 5.764%

6 of the entries, repeated:

Compound,Toxoplasma,T. brucei,LiHisRS,ClpP1P2,TcHisRS
COC(=O)c1cc(OC)ccc1NCC(=O)NCC(=O)N1CCCC1,8.221%,-2.092%,16.3%,-340.4%,1.98%
COc1ccccc1C(NC(=O)C1CCC1)c1noc(C)n1 (centres undefined),11.76%,5.5%,14.04%,-1.893%,7.563%
Cc1nnc(N2C[C@H]3OCC[C@H]3[C@H](C(=O)NCC3CC3)C2)s1,-,-,7.965%,-7.393%,5.376%
Cc1ccc(CN2CCN(C3CSCCSC3)CC2CCO)o1 (centres undefined),-2.679%,1.441%,0%,-10.87%,4.972%
Cn1nccc1-c1ncc2c(c1C(=O)O)CCN(Cc1ccncc1)C2,-,-,19.66%,-5.542%,4.813%
COc1ccc(C2(C(=O)NCc3c(C)ncc4c3CCNC4)CC2)cc1,4.309%,12.59%,12.82%,-5.157%,-0.5618%